The results in this text go back to the supplement of paper PMC10032668.

Protein sequences, listed by entry. Tags and fused reporters are not part of them.
ATP1B3, P54709, UniProt P54709, whole entry: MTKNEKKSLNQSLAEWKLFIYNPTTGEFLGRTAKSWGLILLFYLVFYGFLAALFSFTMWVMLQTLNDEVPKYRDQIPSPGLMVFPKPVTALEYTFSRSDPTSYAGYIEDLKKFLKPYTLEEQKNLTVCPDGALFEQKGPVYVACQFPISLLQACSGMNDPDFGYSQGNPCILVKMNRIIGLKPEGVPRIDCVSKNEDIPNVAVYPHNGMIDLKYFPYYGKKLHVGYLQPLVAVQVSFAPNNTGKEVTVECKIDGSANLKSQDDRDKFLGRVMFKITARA

Common to all, as to assay: PRISMA enrichment of interactor (LFQ) in peptide spot vs all other peptide spots (log2 fold change); higher = stronger / more specific binding of the interactor to the peptide
The target of assay [1] is ATP1B3, P54709. The procedure: (§1)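 PRISMA: 15-aa overlapping tiles (offset 8 aa) of 60 microproteins, plus SOS1/GLUT1 control peptides, were spot-synthesized on cellulose membranes in triplicate. Membranes were incubated with benzonase-treated HEK293T lysate, and bound proteins were identified by LC-MS/MS with LFQ. Enrichment is the log2 fold change of each protein in one spot versus all other spots. Only interactors passing the significance cutoff are listed.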

The target in assay [2] is SRBD1, Q8N5C6. On the procedure:
as §1

For assay [3], the target named is GABRA4, P48169. On the procedure:
as §1

Assay [4] has as its target VKORC1, Q9BQB6. The procedure: as §1
The target in assay [5] is SARS2, Q9NP81. The procedure: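 PRISMA: 221 full-length sORF-encoded peptides (3-15 aa), plus SOS1/GLUT1 control peptides, were spot-synthesized on cellulose membranes in triplicate. Membranes were incubated with HEK293T lysate, and bound proteins were identified by LC-MS/MS with LFQ. Enrichment is the log2 fold change versus all other peptide spots; only significant interactors are listed (cutoff c=6, x0=2.8).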

The other results are listed elsewhere or left out. Only hits are listed; about a third recur on repeated control peptides.

Take GPAWWVVSEVLAEQR [ABR]: the “PRISMA enrichment of interactor (log2)” value in assay [1] worked out at 6.54. For the molecule RDYKVLVVMVPLVGL, the “PRISMA enrichment of interactor (log2)” value in assay [2] is 5.71. GLQGVRSMSPLTKVQ [JPX]: the “PRISMA enrichment of interactor (log2)” value in assay [2] is 4.72.

Turning to DSVRDRLPQDHSAPA [DANCR], in assay [3], the “PRISMA enrichment of interactor (log2)” value was found to be 4.65. Regarding DIPEQDSLGLSNLQK, in assay [2], the “PRISMA enrichment of interactor (log2)” value is 4.18.

In the case of SRTAGPAATWTGIQR [TBX5-AS1], the “PRISMA enrichment of interactor (log2)” value in assay [4] is 6.26. As to MAASRTVMAVGRRR [NF1], the “PRISMA enrichment of interactor (log2)” value in assay [5] was determined as 4.75.
